Results are given in words; binding and its absence hold for the method and conditions named. Binding seen in cells or lysates may run through a third protein. Some results given as binding are weak or reduced against the parent protein; the word gives no strength. Sequences can lack the tags named with a protein.
Biological target: Sho1p cytosolic C-terminal domain, His6 fusion (Sho1p Δ1-145-His6) (S. cerevisiae) (UniProt P40073)
Experiment: pull-down

Protein sequences, listed by entry. Tags and fused reporters are not part of them. Lines headed by an entry give the natural chain unless they say otherwise; changes in a name come on top. Residues count along the entry.
UniProt P40073, 146-367, stated change not applied: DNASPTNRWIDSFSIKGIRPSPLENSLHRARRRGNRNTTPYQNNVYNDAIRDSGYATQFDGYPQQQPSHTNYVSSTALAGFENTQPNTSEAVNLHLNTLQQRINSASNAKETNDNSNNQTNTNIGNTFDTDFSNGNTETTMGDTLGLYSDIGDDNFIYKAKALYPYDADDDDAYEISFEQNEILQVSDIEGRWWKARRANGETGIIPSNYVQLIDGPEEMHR

Row | binding | Binder
1 | binds | Pbs2p-HA (protein, UniProt P08018 1-668) MEDKFANLSLHEKTGKSSIQLNEQTGSDNGSAVKRTSSTSSHYNNINADLHARVKAFQEQRALKRSASVGSNQSEQDKGSSQSPKHIQQIVNKPLPPLPVAGSSKVSQRMSSQVVQASSKSTLKNVLDNQETQNITDVNINIDTTKITATTIGVNTGLPATDITPSVSNTASATHKAQLLNPNRRAPRRPLSTQHPTRPNVAPHKAPAIINTPKQSLSARRGLKLPPGGMSLKMPTKTAQQPQQFAPSPSNKKHIETLSNSKVVEGKRSNPGSLINGVQSTSTSSSTEGPHDTVGTTPRTGNSNNSSNSGSSGGGGLFANFSKYVDIKSGSLNFAGKLSLSSKGIDFSNGSSSRITLDELEFLDELGHGNYGNVSKVLHKPTNVIMATKEVRLELDEAKFRQILMELEVLHKCNSPYIVDFYGAFFIEGAVYMCMEYMDGGSLDKIYDESSEIGGIDEPQLAFIANAVIHGLKELKEQHNIIHRDVKPTNILCSANQGTVKLCDFGVSGNLVASLAKTNIGCQSYMAPERIKSLNPDRATYTVQSDIWSLGLSILEMALGRYPYPPETYDNIFSQLSAIVDGPPPRLPSDKFSSDAQDFVSLCLQKIPERRPTYAALTEHPWLVKYRNQDVHMSEYITERLERRNKILRERGENGLSKNVPALHMGGL
2 | binds | Bem1p-12XMYC (protein, UniProt P29366 1-551) MLKNFKLSKRDSNGSKGRITSADISTPSHDNGSVIKHIKTVPVRYLSSSSTPVKSQRDSSPKNRHNSKDITSPEKVIKAKYSYQAQTSKELSFMEGEFFYVSGDEKDWYKASNPSTGKEGVVPKTYFEVFDRTKPSSVNGSNSSSRKVTNDSLNMGSLYAIVLYDFKAEKADELTTYVGENLFICAHHNCEWFIAKPIGRLGGPGLVPVGFVSIIDIATGYATGNDVIEDIKSVNLPTVQEWKSNIARYKASNISLGSVEQQQQQSITKPQNKSAKLVDGELLVKASVESFGLEDEKYWFLVCCELSNGKTRQLKRYYQDFYDLQVQLLDAFPAEAGKLRDAGGQWSKRIMPYIPGPVPYVTNSITKKRKEDLNIYVADLVNLPDYISRSEMVHSLFVVLNNGFDREFERDENQNNIKTLQENDTATFATASQTSNFASTNQDNTLTGEDLKLNKKLSDLSLSGSKQAPAQSTSGLKTTKIKFYYKDDIFALMLKGDTTYKELRSKIAPRIDTDNFKLQTKLFDGSGEEIKTDSQVSNIIQAKLKISVHDI
